Measurements reported in publication PMC3605578.
No constants are given. Whether binding was seen depends on the method and setting. For some of these results: Binding seen in cells or lysates may run through a third protein. Some binding calls cover weakened binding; strength is not graded here. For some of these results: Tags and fused reporters may be left off the sequences shown.

By UniProt entry, the sequences of proteins in these tests, tags left out.
UniProt O00560: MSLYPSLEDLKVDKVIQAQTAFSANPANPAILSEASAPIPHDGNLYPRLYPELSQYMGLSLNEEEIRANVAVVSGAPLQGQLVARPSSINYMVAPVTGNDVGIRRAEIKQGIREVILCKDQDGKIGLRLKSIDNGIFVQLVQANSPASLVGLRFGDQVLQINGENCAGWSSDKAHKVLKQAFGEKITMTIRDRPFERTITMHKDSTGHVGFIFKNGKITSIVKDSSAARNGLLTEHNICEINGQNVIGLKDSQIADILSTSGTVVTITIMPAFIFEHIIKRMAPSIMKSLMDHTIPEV

Legend:
[1] = target: T1, wild-type syndecan-4 expressed in syndecan-4-null MEFs (UniProt P31431); test: co-IP; coimmunoprecipitation of GFP-syntenin with syndecan-4 from MEFs; 1-3 ug antibody, protein G Sepharose, 1.5 hr at 4°C
T1 sequence: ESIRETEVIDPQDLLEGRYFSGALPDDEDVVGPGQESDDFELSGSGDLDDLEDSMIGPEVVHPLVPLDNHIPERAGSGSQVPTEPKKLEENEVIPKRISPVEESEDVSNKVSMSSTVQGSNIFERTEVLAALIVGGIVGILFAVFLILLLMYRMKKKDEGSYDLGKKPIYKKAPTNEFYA

[2] = target: T2, syndecan-4 Y180E expressed in syndecan-4-null MEFs (UniProt P31431); test: as above
T2 sequence: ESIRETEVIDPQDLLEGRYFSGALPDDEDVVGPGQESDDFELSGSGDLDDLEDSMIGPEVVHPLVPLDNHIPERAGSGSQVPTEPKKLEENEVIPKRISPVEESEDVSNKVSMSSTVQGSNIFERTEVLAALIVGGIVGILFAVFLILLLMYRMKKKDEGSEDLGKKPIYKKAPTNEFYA

[3] = target: T3, GST-syndecan-4 cytoplasmic domain Y180E (UniProt P31431); test: pull-down; recombinant GST-Syn4 cytoplasmic domains as bait; syntenin from cell lysate, detected by blot; only the target purified
T3 sequence: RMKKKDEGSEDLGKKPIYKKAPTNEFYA

[4] = target: T4, GST-syndecan-4 cytoplasmic domain, wild type (UniProt P31431); test: as above
T4 sequence: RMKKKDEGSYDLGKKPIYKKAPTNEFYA

[5] = target: endogenous syndecan-4 of human fibroblasts (human (endogenous in human fibroblasts)) (UniProt P31431); test: SDS-PAGE or Phos-tag gel and immunoblotting after immunoprecipitation; syndecan-4 immunoprecipitated from cell lysate, resolved under reducing SDS conditions; monomer and dimer bands
[6] = target: T1, wild-type syndecan-4 expressed in syndecan-4-null MEFs; test: as above
[7] = target: syndecan-4 Y180L expressed in syndecan-4-null MEFs (UniProt P31431); test: as above

“GFP-syntenin (from UniProt O00560 1-298)” was tested. Which binding [1] did it give?
Its binding is “binds”.

And the binding [2]?
Its binding is “binds”.

With “syntenin, from cell lysate (from UniProt O00560 1-298)” as the molecule, how does the binding [3] read?
Its binding is “binds”.

And the binding [4]?
Its binding is “binds”.

B1: endogenous syndecan-4 of human fibroblasts (receptor, UniProt P31431 19-198)
chain: ESIRETEVIDPQDLLEGRYFSGALPDDEDVVGPGQESDDFELSGSGDLDDLEDSMIGPEVVHPLVPLDNHIPERAGSGSQVPTEPKKLEENEVIPKRISPVEESEDVSNKVSMSSTVQGSNIFERTEVLAALIVGGIVGILFAVFLILLLMYRMKKKDEGSYDLGKKPIYKKAPTNEFYA
For B1, which binding [5] is on record?
Its binding is “binds”.

B2: wild-type syndecan-4 expressed in syndecan-4-null MEFs (receptor, UniProt P31431 19-198)
chain: ESIRETEVIDPQDLLEGRYFSGALPDDEDVVGPGQESDDFELSGSGDLDDLEDSMIGPEVVHPLVPLDNHIPERAGSGSQVPTEPKKLEENEVIPKRISPVEESEDVSNKVSMSSTVQGSNIFERTEVLAALIVGGIVGILFAVFLILLLMYRMKKKDEGSYDLGKKPIYKKAPTNEFYA
B2 was tested. Which binding [6] did it give?
Its binding is “binds”.

B3: syndecan-4 Y180L expressed in syndecan-4-null MEFs (receptor, UniProt P31431 19-198)
chain: ESIRETEVIDPQDLLEGRYFSGALPDDEDVVGPGQESDDFELSGSGDLDDLEDSMIGPEVVHPLVPLDNHIPERAGSGSQVPTEPKKLEENEVIPKRISPVEESEDVSNKVSMSSTVQGSNIFERTEVLAALIVGGIVGILFAVFLILLLMYRMKKKDEGSLDLGKKPIYKKAPTNEFYA
How did the binding [7] turn out when B3 was run?
The binding was “binds”.
